Hit rate of the full screen: of about 330,000 compounds, about 7,700 (2.3%) were called active. The shares of active, inactive and inconclusive entries below differ from those in the screen. Calls come from the whole dose curve; as a rule, active = well fitted inhibition curve with a large enough effect; inconclusive = small, poorly fitted or top-dose-only effect, or effect the other way; inactive = flat fitted curve, though single readings scatter. Potencies beside an inconclusive call are fits to weak or partial responses and may not hold up.
Assay: qHTS screen for small molecules that inhibit ELG1-dependent DNA repair in human embryonic kidney (HEK293T) cells expressing luciferase-tagged ELG1; note: nearly all actives have a fitted effect of over 55% in size
Conditions: HEK293T ELG1-luciferase reporter, luminescence, 16 h, DNA damage induced by 5-fluorouridine; activity change, negative = inhibition: at 46.1 µM (top of the series)
Procedure, shortened: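 Luminescence from the luciferase reporter, measured 30 min after ONE-Glo reagent at room temperature, was the read-out. Beforehand, 2,000 cells per well were exposed for 16 hr at 37 °C to 5-fluorouridine together with compound or vehicle.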
% is set by controls: 0 for no effect and ±100 for the full control effect; potency is the fitted concentration of half-maximal effect.

Compound	Potency	activity change, negative = inhibition
O=c1[nH]c2ccccc2cc1CN(Cc1ccco1)S(=O)(=O)c1ccc(F)cc1	inconclusive: 29.1 µM [inhibitor, partial curve, poor fit]	
Cc1ccc(C(=O)c2cn[nH]c2-c2cc(Cl)ccc2O)cc1		inactive: 3.56%
COc1ccc(C(=O)NCCc2ccccc2)cc1[N+](=O)[O-]	inconclusive: 16.4 µM [activator, partial curve, poor fit]	
COc1cccc(C(=O)N2CCN(C(=O)c3cccc4ccccc34)CC2)c1OC	inconclusive: 29.1 µM [inhibitor, partial curve, poor fit]	
CC(C)(C)c1csc(NC(=O)Cn2c(=O)oc3ccccc32)n1	inconclusive: 13 µM [activator, partial curve, poor fit]	
COC(=O)C1=C(C)N(Cc2cccnc2)C(=O)/C1=C\c1cccs1		inactive: -10.5%
CCCCCc1ccc(OCCCC[n+]2ccccc2)c(CCCCC)c1	active: 13 µM	
O=c1oc2ccccc2nc1/C=C(\O)c1ccccc1		inactive: -10.3%
Cc1cc(NC(=O)CSc2nc(-c3cccnc3)ccc2C#N)no1	inconclusive: 14.6 µM [inhibitor, partial curve]	
COc1ccc(-c2nn(-c3ccccc3)cc2C(=O)N/N=C/c2ccc([N+](=O)[O-])o2)cc1	inconclusive: 5.8 µM [activator, single point]	
COc1cc(OC)c(C(=O)OCC(=O)N2CCOCC2)cc1OC		inactive: 13.7%
O=C1CSC(c2ccccn2)N1c1cccc(Cl)c1 (stereo not given)	inconclusive: 29.1 µM [activator, partial curve, poor fit]	
CC(C)(C)[C@H]1COC(=O)[C@@H](Cc2ccc(F)cc2)C/C=C\C[C@@H](CC(=O)N[C@@H](CO)Cc2ccccc2)C(=O)N1	inconclusive: 18.3 µM [inhibitor, partial curve]	
COCCN(C(=O)C1CC(=O)N(Cc2ccccc2)C1)c1nc(-c2ccc([N+](=O)[O-])cc2)cs1 (stereo not given)	inconclusive: 23.1 µM [inhibitor, single point]	
Cc1ccc(NC(=O)C2=NNC(=O)CC2)cc1F	inconclusive: 18.3 µM [activator, partial curve]	
Cc1sc2nc(CSc3ccccc3)nc(N3CCN(C)CC3)c2c1C		inactive: -29.4%
Cc1occc1C(=O)NNC(=O)NC12CC3CC(CC(C3)C1)C2	inconclusive: 16.4 µM [activator, partial curve, poor fit]	
NC(=S)N/N=C/c1coc2ccc(F)cc2c1=O		inactive: 5.18%
Cc1ccc(C(=O)COC(=O)c2ccc(Br)o2)cc1C	inconclusive: 20.6 µM [activator, partial curve, poor fit]	
Cc1cc(=O)n(C)c(=O)n1CCCCOc1ccc([N+](=O)[O-])cc1		inactive: -0.9%
O=C1SC(Cc2ccccc2)C(=O)N1c1ccccc1 (stereo not given)		inactive: 6.09%
Cc1nnc(SC(C)C(=O)Nc2ccc(N3CCOCC3)cc2)n1Cc1ccccc1 (stereo not given)	inconclusive: 0.651 µM [activator, single point]	
O=C(O)Cn1cc(CN2CCOCC2)c2ccccc21		inactive: 3.58%
COc1cc(Nc2nc3ccccc3n3nnnc23)cc(OC)c1OC	inconclusive: 4.61 µM [inhibitor, full curve]	

Compound	Potency	activity change, negative = inhibition
O=C(Nc1cccnc1)c1cccc(S(=O)(=O)Nc2cccc(Cl)c2)c1	inconclusive: 20.6 µM [inhibitor, partial curve]	
CN(C(=O)COC(=O)/C=C/c1ccc(C(F)(F)F)cc1)c1c(N)n(Cc2ccccc2)c(=O)[nH]c1=O		inactive: 10.2%
CCCc1nnc(NC(=O)C2CCCO2)s1 (stereo not given)	inconclusive: 20.6 µM [activator, partial curve]	
Cc1occc1C(=O)Nc1cccc([N+](=O)[O-])c1		inactive: 11.4%
CN(c1nc2c(c(=O)n(C)c(=O)n2C)n1CC(=O)c1ccccc1)C1CCCCC1	inconclusive: 18.4 µM [inhibitor, single point]	
O=C(Nc1cccnc1)c1ccc(CSc2ccccc2)cc1	inconclusive: 16.4 µM [activator, partial curve]	
CCN(CC(=O)Nc1c(F)cccc1F)C(=O)C1CC(=O)N(CCc2ccccc2)C1 (stereo not given)	inconclusive: 7.08 µM [activator, full curve, poor fit]	
Cc1ccc(S(=O)(=O)CCC(=O)NCc2ccc(Cl)cc2)cc1		inactive: 17.5%
Cc1csc(SCc2ccc(C(=O)O)cc2)n1	inconclusive: 6.51 µM [inhibitor, partial curve, poor fit]	
O=C(Nc1cccc(S(=O)(=O)NC2=NCCCCC2)c1)c1ccc(Cl)cc1	inconclusive: 6.51 µM [inhibitor, partial curve, poor fit]	
COC(=O)c1ccccc1NC(=O)C1CCCN(c2nnc(-n3cccc3)s2)C1 (stereo not given)	inconclusive: 32.6 µM [inhibitor, single point]	
Cc1cc(NC(=O)c2cccs2)no1	inconclusive: 14.6 µM [activator, partial curve]	
O=C(Nc1cnc2sccn2c1=O)c1ccccc1Cl	inconclusive: 4.11 µM [activator, full curve]	
Cc1ccccc1C(=O)Nc1nnc(-c2cccnc2)o1		inactive: 5.44%
COc1ccc(C(=O)NNC(=O)C2CC=CCC2)cc1 (stereo not given)	inconclusive: 25.9 µM [activator, partial curve, poor fit]	
CCc1nc2ccccc2n1CC(O)COCC1CC=CCC1 (stereo not given)		inactive: -2.86%
Cc1ccc(S(=O)(=O)N2CCOCC2)cc1NC(=O)COc1ccc(C(=O)c2ccccc2)cc1	inconclusive: 23.1 µM [inhibitor, single point]	
CC(=O)Nc1cccc(C(=O)OC(C)C(=O)NCc2ccc3c(c2)OCO3)c1 (stereo not given)		inactive: 12.2%
CC(=O)Nc1ccc(-c2cc(C(=O)O)c3ccccc3n2)cc1		inactive: -7.46%
COc1ccc(CNC(=O)Cc2cccs2)cc1	inconclusive: 16.4 µM [activator, partial curve]	
Cc1ccc(C(=O)N2CCN(c3ncccn3)CC2)cc1S(=O)(=O)N1CCCCC1		inactive: 8.83%
Cc1cc(C)cc(NC(=O)CSCc2cnn(-c3ccccc3)c2-n2cccc2)c1	inconclusive: 29.1 µM [inhibitor, single point]	
COc1ccccc1CCCNC(=O)C1CCC(=O)N(CCc2ccc(Cl)cc2)C1 (stereo not given)	inconclusive: 5.8 µM [inhibitor, partial curve, poor fit]	
Cc1ccc(C)c(OCC(=O)Nc2ccc(S(=O)(=O)Nc3ccccn3)cc2)c1C		inactive: -8.87%

Compound	Potency	activity change, negative = inhibition
CN(C)C(=O)COc1ccc2c3c(c(=O)oc2c1)CCCC3	inconclusive: 35.5 µM [activator, single point]	
O=[N+]([O-])c1ccc2c(c1)ncn2-c1ccccc1	inconclusive: 25.9 µM [activator, single point]	
Cc1ccc(/C=C2\SC(N3CCN(C(c4ccccc4)c4ccccc4)CC3)=NC2=O)o1	inconclusive: 20.6 µM [inhibitor, partial curve, poor fit]	
CCN1CCN(c2ccc(NC(=O)c3ccc4c(c3)OCO4)cc2)CC1	inconclusive: 18.4 µM [activator, partial curve]	
Brc1ccc(OCc2cn3ccccc3n2)cc1	inconclusive: 8.2 µM [activator, partial curve]	
CN1CCc2c(sc(NC(=O)c3cc4cc([N+](=O)[O-])ccc4s3)c2C(N)=O)C1	inconclusive: 29.1 µM [inhibitor, single point]	
CC(C)(C)c1nc(Sc2ccc([N+](=O)[O-])cn2)n[nH]1	inconclusive: 16.4 µM [activator, partial curve]	
COc1ccc2oc(C(=O)Nc3ccc(N4CCOCC4)cc3)c(C)c2c1	inconclusive: 20.6 µM [inhibitor, single point]	
CC1CCCN(S(=O)(=O)c2ccc(CN3C(=O)c4cccnc4C3=O)cc2)C1 (stereo not given)	inconclusive: 18.3 µM [activator, partial curve, poor fit]	
COc1ccc(NC(=O)COc2coc(CN3c4ccccc4CC3C)cc2=O)cc1 (stereo not given)		inactive: -17.9%
O=C(Oc1ccccc1N1C(=O)CCC1=O)c1ccco1	inconclusive: 23.1 µM [inhibitor, partial curve, poor fit]	
COc1ccc(CCNC(=O)COC(=O)c2cc(S(=O)(=O)N3CCCC3)ccc2O)cc1		inactive: 7%
CCNC(=S)NS(=O)(=O)c1ccc(Cl)cc1		inactive: 1.74%
CC(=O)N1CCN(C(=O)c2cc3ccccc3o2)CC1	inconclusive: 20.6 µM [activator, single point]	
CC(C)C1COC(c2cccc3ccccc23)=N1 (stereo not given)	inconclusive: 13 µM [activator, partial curve]	
N#CCCn1cc(/C=C2\NC(=S)N(c3ccccc3)C2=O)c(-c2ccc(-c3ccccc3)cc2)n1		inactive: 0%
COCCn1c(CN2CCc3ccccc3C2)nc2c1c(=O)n(C)c(=O)n2C	active: 6.51 µM	
COC(=O)c1ccccc1NC(=S)NC(=O)c1ccc(C)cc1		inactive: 1.51%
CC(C)(C)c1ccc(C(=O)NCCc2ccccc2)cc1	inconclusive: 1.46 µM [activator, partial curve]	
COc1cc(OC)c(OC)cc1CNC(=O)c1cc(S(=O)(=O)N2CCOCC2)ccc1F	inconclusive: 23.1 µM [inhibitor, partial curve, poor fit]	
O=C(CN1CCCCC1)N1CCCc2c1c(=O)oc1ccc(OCc3ccccc3)cc21		inactive: -2.07%
CCCN(Cc1nnc(-c2ccccc2Cl)o1)C(=O)c1cc(S(=O)(=O)N2CCOCC2)ccc1F	inconclusive: 29.1 µM [inhibitor, single point]	

Five of these compounds in a different format.
Compound | Potency | activity change, negative = inhibition
Cc1occc1C(=O)NNC(=O)NC12CC3CC(CC(C3)C1)C2 | inconclusive: 16.4 µM [activator, partial curve, poor fit] | 
CN(C(=O)COC(=O)/C=C/c1ccc(C(F)(F)F)cc1)c1c(N)n(Cc2ccccc2)c(=O)[nH]c1=O |  | inactive: 10.2%
CCN(CC(=O)Nc1c(F)cccc1F)C(=O)C1CC(=O)N(CCc2ccccc2)C1 (stereo not given) | inconclusive: 7.08 µM [activator, full curve, poor fit] | 
CCc1nc2ccccc2n1CC(O)COCC1CC=CCC1 (stereo not given) |  | inactive: -2.86%
O=[N+]([O-])c1ccc2c(c1)ncn2-c1ccccc1 | inconclusive: 25.9 µM [activator, single point] | 

Reference: PubChem BioAssay AID504467 (National Center for Advancing Translational Sciences (NCATS), 2011)
